Only a part is listed here, and it is no random draw. At the low end of the ranking, values are background and their order means little.

Amino acid sequences for entries named in this document (tags omitted). A change or cut given only in a name is not applied to a line headed by its entry.
UniProt P41212: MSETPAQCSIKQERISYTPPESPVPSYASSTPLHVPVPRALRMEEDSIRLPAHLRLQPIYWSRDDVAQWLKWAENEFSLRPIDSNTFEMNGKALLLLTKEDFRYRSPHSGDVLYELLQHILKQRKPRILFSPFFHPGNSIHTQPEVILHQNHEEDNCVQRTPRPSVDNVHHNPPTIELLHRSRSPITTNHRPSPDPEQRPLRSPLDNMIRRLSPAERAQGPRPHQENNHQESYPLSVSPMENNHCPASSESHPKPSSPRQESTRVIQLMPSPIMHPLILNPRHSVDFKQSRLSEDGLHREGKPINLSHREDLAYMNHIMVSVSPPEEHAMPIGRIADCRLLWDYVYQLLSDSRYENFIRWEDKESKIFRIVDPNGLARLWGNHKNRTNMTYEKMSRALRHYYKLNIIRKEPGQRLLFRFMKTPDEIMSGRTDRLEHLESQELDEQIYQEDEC

The target of this experiment is ETV6 (UniProt P41212). The experiment can be described thus: DAPPL (digital affinity profiling via proximity ligation, sequencing). The note with it: 10 mM Tris-HCl pH 7.5, 50 mM NaCl, 1 mM DTT, 4% glycerol, room temperature, 30 min; GST-TFs on glutathione beads, 16-mer random dsDNA library, 0.1% …; high values mean tight binding; double strand, one strand shown; scale: fold enrichment (6-mer frequency, TF over GST control).
Turning to CTGAGC, the binding signal was 1.16. CATCTG: the binding signal amounted to 1.11. AAACCA registered a binding signal of 1.21.

Sequence ATTTCT displayed a binding signal of 1.39. Consider TCCCCA, for which the binding signal was 1.26. The same measure for TACTGA: 0.943; for TCCCTA: 1.17. In the case of ACTCTA, the binding signal was 1.33. Regarding TTCACT, the binding signal came to 1.23. The figure for TTCTCC is 1.48; for CCGATG it is 0.965. The same measure for TCTCGA: 1.47; for TCCTCT: 1.64.

Regarding TCCCGC, the binding signal is 1.5.

Sequence GTTTCC gave a binding signal of 3.24. For AAATGA, the binding signal worked out at 1.47. The figure for CTAGGT is 1.11; for CAATAT it is 1.23. The figure for TAATAA is 1.17; for TTATAG it is 1.16; for CCGATT it is 1.52. The same measure for TTTTGA: 1.04; for AACCCA: 1.09. Turning to ATACGT, the binding signal amounted to 1.14.

As to ACATAC, the binding signal came to 1.17. With TCGCGC, the binding signal came out at 0.973. On to ATCATG, for which the binding signal stood at 1.08.

Sequence TAAGAT showed a binding signal of 1.28.

Regarding CGATTG, the binding signal came to 1.22. The figure for CGAAAC is 1.16; for TACTCT it is 1.39; for CATTTA it is 1.13. As to TGTATC, the binding signal was found to be 1.36.

On to AAAAAA, for which the binding signal amounted to 1.35. Sequence CGCTTC had a binding signal of 2.35.

Sequence TGTAAA displayed a binding signal of 1.03. Take CCGCAC: the binding signal stood at 1.56.

The sequence GCCAAT displayed a binding signal of 0.997. The same measure for TCTCAA: 1.27.

The record behind these values is publication PMC7862700.
